From PubChem BioAssay AID504834 (National Center for Advancing Translational Sciences (NCATS), 2011)
About 22,000 (6.9%) of roughly 320,000 compounds were called active. The shares of active, inactive and inconclusive entries below differ from those in the screen. Calls follow the shape of the dose curve; as a rule, active = well fitted inhibition curve with a large enough effect; inconclusive = small, poorly fitted or top-dose-only effect, or another doubt; inactive = no such curve, though single readings can be large or run the other way. Potencies of inconclusive entries are doubtful fits and often do not repeat.

Assay: Primary qHTS for delayed death inhibitors of the malarial parasite plastid, 96 hour incubation
Settings: P. falciparum luciferase reporter growth; series mostly up to 28.7 µM; activity change, negative = inhibition: at the top concentration
Summary of the method: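 Readout is luminescence from an integrated firefly luciferase in P. falciparum. Red cells, 2% hematocrit and 0.05% parasitemia final, were cultured with compound through two parasite generations (96 hours) at 37 C, 5% CO2.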
% is scaled to controls: 0 for no effect and ±100 for the full control effect; potency is read from the fitted curve at half-maximal effect.

Compound	activity change, negative = inhibition	Potency
O=C(NCC1CCCCC1)c1ccco1	inactive: 3.14%	
C=CCc1ccccc1OCC(=O)N/N=C/c1ccc(OC(C)=O)cc1OC(C)=O		inconclusive: 18.5 µM [inhibitor, single point]
COc1ccc(C2=NOC(C(=O)Nc3cc(C)on3)C2)cc1 (stereo not given)		active: 9.28 µM
CCOCCCNC(=O)CCCC1=NS(=O)(=O)c2ccccc2N1	inactive: -7.74%	
CCC(=O)N1N=C2C3CCN(CC3)C2C1c1ccc(C)cc1 (stereo not given)		active: 4.15 µM
COc1cccc(CNC(=O)CSc2nc(=O)n(Cc3ccncc3)c3c2CCC3)c1		inconclusive: 13.1 µM [inhibitor, partial curve, poor fit]
Nc1ncnc2c1ncn2CCc1ccccc1		inconclusive: 0.928 µM [inhibitor, full curve]
O=C(CN1CCCC1)NN=C(c1ccccc1)c1ccccc1		inconclusive: 18.5 µM [inhibitor, single point]
Cc1ccc(CNC(=O)c2cc3c(-c4ccc(Cl)cc4)nn(C)c3s2)o1		inconclusive: 10.4 µM [inhibitor, single point]
COc1cccc(C(=O)NNS(=O)(=O)c2ccc(F)cc2)c1		inconclusive: 4.65 µM [inhibitor, partial curve, poor fit]
O=C(C1CCCN(S(=O)(=O)c2cnc[nH]2)C1)N1CCN(Cc2ccccc2)CC1 (stereo not given)		inconclusive: 0.738 µM [inhibitor, full curve, poor fit]
CCOc1ccccc1NC(=O)CN(Cc1ccccc1)S(C)(=O)=O		inconclusive: 14.7 µM [inhibitor, partial curve, poor fit]
CCOc1cc(S(=O)(=O)N2CCN(Cc3ccccc3)CC2)ccc1Br	inactive: 69.2%	
Cc1cc(C)nc(NC(=O)CCN2C(=O)c3ccccc3S2(=O)=O)n1	inactive: 29.8%	
Cc1cc2c(c(=O)n1Cc1ccco1)C(c1ccccc1)C(C#N)=C(N)O2 (stereo not given)		inconclusive: 18.5 µM [inhibitor, single point]
COc1cnc(-c2ccccc2)[nH]c1=O	inactive: 12%	
Cc1ccc(C)c2[nH]c(=O)c(CCNC(=O)C(C)(C)C)cc12	inactive: 58%	
COc1cccc(Nc2c(Nc3cccc(OC)c3)c(=O)c2=O)c1		inconclusive: 1.04 µM [inhibitor, partial curve]
COc1ccc(CC(=O)N2CCC(n3nccc3NC(=O)C3CCOC3)CC2)cc1 (stereo not given)		inconclusive: 10.4 µM [inhibitor, single point]
C=CCN(CC=C)S(=O)(=O)c1ccc(C(=O)Nc2nnc(CSC)o2)cc1		inconclusive: 18.5 µM [inhibitor, single point]

Sorted by SMILES length (low to high): 3 of the compounds above
Compound	activity change, negative = inhibition	Potency
CCOc1cc(S(=O)(=O)N2CCN(Cc3ccccc3)CC2)ccc1Br	inactive: 69.2%	
Cc1cc(C)nc(NC(=O)CCN2C(=O)c3ccccc3S2(=O)=O)n1	inactive: 29.8%	
COc1cccc(CNC(=O)CSc2nc(=O)n(Cc3ccncc3)c3c2CCC3)c1		inconclusive: 13.1 µM [inhibitor, partial curve, poor fit]
